Data source: PubChem BioAssay AID1259254 (NCATS, 2017)

- Test: 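Gene knock-downs that lead to re-replication, shown by excess G2 DNA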 (primary screen)
- System: human HCT116 colorectal cancer cells
- Reagents: single siRNA against human genes
- Timing: 3 days
- Measurement: 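Imaged Hoechst DNA stain sorts each cell into a cycle phase by DNA amount; per plate, G2 fraction set to 0% for non-targeting and 100% for GMNN siRNA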
- Scale: G2 robust z-score: higher = more G2 cells, more excess DNA replication
- Active means: 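An siRNA counts as active if its G2 robust z-score lies at least 5 MADs above the screen median; here such calls match roughly 38% of GMNN control or more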
Shown is an unselected part of about 59,000 reagents. About 1,550 of all reagents (2.6%) were called active. 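G2 share is only a proxy for re-replication; each gene was hit by three separate siRNAs, and active genes were retested.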 Reagents against one gene are numbered here. Further read-outs or replicates are left out here. The record does not give: the amount of reagent.

no.	target	reagent	G2 robust z-score	Call
1	LANCL2 (LanC like glutathione S-transferase 2)	1	-0.968	inactive
2	LANCL2 (LanC like glutathione S-transferase 2)	2	0.652	inactive
3	LANCL2 (LanC like glutathione S-transferase 2)	3	1.29	inactive
4	TMED2 (transmembrane p24 trafficking protein 2)	1	-0.12	inactive
5	TMED2 (transmembrane p24 trafficking protein 2)	2	0.884	inactive
6	TMED2 (transmembrane p24 trafficking protein 2)	3	-0.748	inactive
7	LOC642947 (retired record)	1	-0.533	inactive
8	LOC642947 (retired record)	2	-0.651	inactive
9	LOC642947 (retired record)	3	1.51	inactive
10	VPS72 (vacuolar protein sorting 72 homolog)	1	-0.798	inactive
11	VPS72 (vacuolar protein sorting 72 homolog)	2	0.134	inactive
12	VPS72 (vacuolar protein sorting 72 homolog)	3	0.243	inactive
13	PJVK (pejvakin)	1	0.0876	inactive
14	PJVK (pejvakin)	2	-0.213	inactive
15	PJVK (pejvakin)	3	0.746	inactive
16	PHGDH (phosphoglycerate dehydrogenase)	1	-1.48	inactive
17	PHGDH (phosphoglycerate dehydrogenase)	2	-1.5	inactive
18	PHGDH (phosphoglycerate dehydrogenase)	3	1.26	inactive
19	ROBO4 (roundabout guidance receptor 4)	1	-1.56	inactive
20	ROBO4 (roundabout guidance receptor 4)	2	-1.13	inactive
21	ROBO4 (roundabout guidance receptor 4)	3	1.18	inactive
22	FOLH1 (folate hydrolase 1)	1	-0.995	inactive
23	FOLH1 (folate hydrolase 1)	2	2.84	inactive
24	FOLH1 (folate hydrolase 1)	3	2.84	inactive
25	CIBAR1P2 (CIBAR1 pseudogene 2)	1	0.0168	inactive
26	CIBAR1P2 (CIBAR1 pseudogene 2)	2	-0.819	inactive
27	CIBAR1P2 (CIBAR1 pseudogene 2)	3	0.315	inactive
28	SLC35E2A	1	0.595	inactive
29	SLC35E2A	2	0.276	inactive
30	SLC35E2A	3	-0.538	inactive
31	ISY1 (ISY1 spliceosome associated protein)	1	-0.0399	inactive
32	ISY1 (ISY1 spliceosome associated protein)	2	0.0314	inactive
33	ISY1 (ISY1 spliceosome associated protein)	3	0.785	inactive
34	EYA3 (EYA transcriptional coactivator and phosphatase 3)	1	5.22	active
35	EYA3 (EYA transcriptional coactivator and phosphatase 3)	2	-0.857	inactive
36	EYA3 (EYA transcriptional coactivator and phosphatase 3)	3	2.42	inactive
37	COBL (cordon-bleu WH2 repeat protein)	1	0.172	inactive
38	COBL (cordon-bleu WH2 repeat protein)	2	0.929	inactive
39	COBL (cordon-bleu WH2 repeat protein)	3	0.181	inactive
40	NRP1 (neuropilin 1)	1	-0.533	inactive
41	NRP1 (neuropilin 1)	2	-1.11	inactive
42	NRP1 (neuropilin 1)	3	-0.447	inactive

Next part (3 carried over from the part before).
no.	target	reagent	G2 robust z-score	Call
40	NRP1 (neuropilin 1)	1	-0.533	inactive
41	NRP1 (neuropilin 1)	2	-1.11	inactive
42	NRP1 (neuropilin 1)	3	-0.447	inactive
43	VPREB1 (V-set pre-B cell surrogate light chain 1)	1	-0.406	inactive
44	VPREB1 (V-set pre-B cell surrogate light chain 1)	2	-0.356	inactive
45	VPREB1 (V-set pre-B cell surrogate light chain 1)	3	5.8	active
46	CAPRIN2 (caprin family member 2)	1	-1	inactive
47	CAPRIN2 (caprin family member 2)	2	-0.722	inactive
48	CAPRIN2 (caprin family member 2)	3	0.185	inactive
49	XPO5 (exportin 5)	1	-1.12	inactive
50	XPO5 (exportin 5)	2	-0.411	inactive
51	XPO5 (exportin 5)	3	-0.9	inactive
52	GIT2 (GIT ArfGAP 2)	1	0.177	inactive
53	GIT2 (GIT ArfGAP 2)	2	0.597	inactive
54	GIT2 (GIT ArfGAP 2)	3	-0.719	inactive
55	TEX264 (testis expressed 264, ER-phagy receptor)	1	0.42	inactive
56	TEX264 (testis expressed 264, ER-phagy receptor)	2	1.22	inactive
57	TEX264 (testis expressed 264, ER-phagy receptor)	3	-0.541	inactive
58	PIGN (phosphatidylinositol glycan anchor biosynthesis class N)	1	-0.899	inactive
59	PIGN (phosphatidylinositol glycan anchor biosynthesis class N)	2	-1.5	inactive
60	PIGN (phosphatidylinositol glycan anchor biosynthesis class N)	3	0.257	inactive
61	ZMAT4 (zinc finger matrin-type 4)	1	0.119	inactive
62	ZMAT4 (zinc finger matrin-type 4)	2	-0.962	inactive
63	ZMAT4 (zinc finger matrin-type 4)	3	-0.752	inactive
64	GATM (glycine amidinotransferase)	1	-1.37	inactive
65	GATM (glycine amidinotransferase)	2	-0.694	inactive
66	GATM (glycine amidinotransferase)	3	3.39	inactive
67	LRATD1 (LRAT domain containing 1)	1	-1.24	inactive
68	LRATD1 (LRAT domain containing 1)	2	-0.811	inactive
69	LRATD1 (LRAT domain containing 1)	3	-1.24	inactive
